The values that follow come from paper PMC10693528, “A high-throughput metabolomics in vitro platform for the characterization of hepatotoxicity” (Cell Biology and Toxicology, 2023).

The data set relates to HepG2 cells. The data set is described as follows: LC-MS/MS targeted intracellular metabolomics. Type of data set: cell-based, human. The settings on record: intermediate concentration (C3; C2 for aroclor), 48 h. As for the experimental part: Metabolite profiling of cells was performed directly in the same 96-well plate according to a standardized protocol described below. In order to prevent any interaction with the cell material, the automatic sampler was adjusted to pick up the sample from the supernatant at a specified depth avoiding the contact with the bottom of the plate.
After the initial quenching step (50 μL isopropanol 80%), additional 70 μL of isopropanol 80%, containing internal standards (methionine-D3, tryptophan-D5, arginine-13C6-15N4, Boc-Ala-Gly-Gly-Gly-OH, coenzyme Q1, coenzyme Q2, coenzyme Q4) were added to each well. The internal standards were used for quality control by visual inspection (signal intensity, peak shape, retention time); they were not used for normalization. Afterwards, plates were shaken for 5 min, 750 rpm at 20 °C, and placed for 30 s in the ultrasonic device. Then, the plates were centrifugated for 10 min, at 5485 g, 15 °C. Further, 2.5 μL of the extract were injected each for reversed-phase and hydrophilic interaction liquid chromatography followed by MS/MS detection (AB Sciex QTrap 6500+) using the positive and negative ionization mode. For reverse-phase high-performance liquid chromatography (RP-HPLC, Ascentis Express C18, 5 cm × 2.1 mm, 2.7 μm Supelco), gradient elution was performed with mobile phase A, water/methanol/0.1 M ammonium formate (1:1:0.02, w/w), and B, methyl-tert-butylether/2-propanol/methanol/0.1 M ammonium formate/formic acid (4:2:1:0.07:0.035, w/w) 5.9 min linear gradient: 0 min 100% A, 0.5 min 75% A, 5.9 min 10% A; followed by 0% A until 6.7 min; re-equilibration at 100% A until 7.7 min; flow rate 600 μL/min; column temperature 40 °C HILIC (ZIC-HILIC, 2.1 × 100 mm, 3.5 μm, Supelco) gradient elution was performed with mobile phase C, acetonitrile/water (99:1, v/v) with 0.2% (v) acetic acid, and D, 7 mM ammonium acetate with 0.2% (v) acetic acid (5.0 min linear gradient: 0 min 100% C, 5 min 10% C; followed by a linear gradient back to 100%C until 6.5 min; re-equilibration at 100% C until 7.5 min; flow rate 600 μL/min; column temperature 40 °C.). Two LC-MS systems with identical configuration were used for the analysis. Normalization to lyophilized reference samples (see below) was used to compensate for variation from between analytical batches. The efficiency of this normalization procedure was checked by principal component analysis (PCA), confirming that Pool samples from different analytical batches clustered together.
Reference samples derived from lyophilized untreated HepG2 cells (technical control samples) were measured in parallel throughout the entire analytical process. Data were normalized against the median of these lyophilized HepG2 cells reference samples, to give normalized ratios (performed for each sample per metabolite). This compensated for inter- and intra-instrumental variation. To correct for small differences in cell numbers within and between different treatment groups, data were also normalized to the within sample median, as described in detail by (Ramirez et al. [2018]). For intracellular metabolomic analysis, the median of each sample was calculated across all the 221 measured metabolites.
To generate metabolic profiles for the different treatments, heteroscedastic t test (Welch test) was applied to log-transformed normalized metabolite data to compare treated groups with their respective controls.
Principal component analysis (PCA) and hierarchical clustering (HCA) analyses were performed using R software environment (https://www.r-project.org/). PCA was conducted using the ropls package (Thévenot et al. [2015]) with log10-transformed input data and standard scaling. HCA was performed using the pvclust package (Suzuki et al. [2019]), (https://CRAN.R-project.org/package=pvclust). Input: log10(Ratio), clustering method: Ward D2, distance method: Manhattan, bootstrapping: 10000 times.

Some entries repeat one wording, which the source may state once for all of them.

For the compound `O=C(O)c1cc(Oc2ccc(C(F)(F)F)cc2Cl)ccc1[N+](=O)[O-]` [Acifluorfen], the “PCA cluster of metabolic profile (mode of action)” value (“PCA cluster of metabolic profile” for short) is on record as “peroxisome proliferators cluster”.
With `CC(C)(Oc1ccc(CCNC(=O)c2ccc(Cl)cc2)cc1)C(=O)O` [Bezafibrate], the “PCA cluster of metabolic profile” value is on record as “peroxisome proliferators cluster”.
For the compound `CC(=O)N1CCN(c2ccc(OCC3COC(Cn4ccnc4)(c4ccc(Cl)cc4Cl)O3)cc2)CC1` (stereo not drawn) [Ketoconazole], the “PCA cluster of metabolic profile” value is on record as “liver enzyme inhibitor”.
Turning to `CCC(CC)Nc1c([N+](=O)[O-])cc(C)c(C)c1[N+](=O)[O-]` [Pendimethalin], the “PCA cluster of metabolic profile” value is recorded as “liver enzyme inducers cluster”.
`Cc1cccc(Nc2cc(Cl)nc(SCC(=O)O)n2)c1C` [Wy-14643]: the “PCA cluster of metabolic profile” value is recorded as “peroxisome proliferators cluster”.
With `O=c1cc(-c2ccccc2)oc2ccc3ccccc3c12` [β-naphthoflavone], the “PCA cluster of metabolic profile” value was “liver enzyme inducers cluster”.
